According to US20240092846A1, “ENGINEERED CYCLOTIDES WITH POTENT BROAD ANTIMICROBIAL ACTIVITY” (priority 2022, published 2024):
Part of at least one peptide drawing is inferred or uncertain, most often the ends.

Key:
[1] = test system: clinical isolates of P. aeruginosa; conditions: n=20
Method: (§1) Broad-spectrum antimicrobial activity was evaluated using the broth microdilution assays against two different pathogens from four different species of bacteria (P. aeruginosa, S. aureus, K. pneumoniae, and E. coli) to determine if the cyclotides retained its potent activity. Broth microdilution assays were utilized to determine the minimum inhibitory concentrations (MICs) of our cyclotides according to the CLSI (formerly NCCLS) guidelines modifications as described below (40). The assay utilized cation-adjusted Mueller-Hinton broth (CAMHB) (Becton, Dickinson and Company, Franklin Lakes, NJ) which was prepared according to the manufacturer's instructions. Cyclotide solutions were prepared as 10× solutions in 0.01% acetic acid. Cyclotide were serially diluted two-fold at concentrations ranging from 25-0.05 μM that contained CAMHB and 0.04% bovine serum albumin (BSA) in polypropylene microtiter plates (Corning, Corning, NY). All bacteria were incubated overnight at 37° C. at 200 rpm in CAMHB and bacterial inoculum was adjusted with additional CAMHB to 0.5 McFarland standard through spectrophotometry at 600 nm. […] Study strains included a total of 20 P. aeruginosa and 20 methicillin resistant S. aureus strains from patients with cystic fibrosis at the Keck Medical Center of the University of Southern California. […]

[2] = test system: clinical isolates of methicillin-resistant S. aureus (MRSA); conditions: n=20
Method: as §1

`CC(C)C[C@H](NC(=O)[C@H](CCCNC(=N)N)NC(=O)CNC(=O)CNC(=O)[C@@H](N)CCCNC(=N)N)C(=O)N[C@H]1CSSC[C@@H](C(=O)N[C@H](C(=O)NCC(=O)N[C@@H](CCCNC(=N)N)C(N)=O)C(C)C)NC(=O)[C@H](C(C)C)NC(=O)[C@@H]2CSSC[C@H](NC(=O)[C@H](Cc3ccc(O)cc3)NC1=O)C(=O)N[C@@H](CCCNC(=N)N)C(=O)N[C@@H](CCCNC(=N)N)C(=O)N[C@@H](CCCNC(=N)N)C(=O)N[C@@H](Cc1ccccc1)C(=O)N2` [PG-1, reference compound] was tested, and the “P. aeruginosa MICrange” value [1] was 0.05 to 1.5 µM and the “S. aureus MICrange” value [2] was 0.2 to 0.8 µM.
